Screen size: about 580,000 compounds; about 6,100 (1.1%) were called active. The inconclusive results got no clear call from the source; some entries with a clear call stand among them for comparison. Calls follow the shape of the dose curve; as a rule, active = well fitted inhibition curve with a large enough effect; inconclusive = small, poorly fitted or top-dose-only effect, or another doubt; inactive = no such curve, though single readings can be large or run the other way. Potencies of inconclusive entries are doubtful fits and often do not repeat.
biological target: Polyunsaturated fatty acid lipoxygenase ALOX12 (Homo sapiens) (UniProt P18054); assay: Primary qHTS assay for inhibitors of human arachidonate 12S-lipoxygenase (ALOX12): Round 2; details: purified 12hLO, xylenol orange hydroperoxide absorbance; series mostly up to 108 µM
Outline: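 Purified human 12hLO (150 nM final) in 25 mM Hepes, 0.01% Triton X-100, pH 7.0 was preincubated 15 min at room temperature with compound. Then 40 uM arachidonic acid was added, 30 min. Hydroperoxide was read by Fe-XO absorbance ratio 573/405 nm.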
Potency is read from the fitted curve at half-maximal effect.

The chains behind the UniProt entries cited, without tags or fusion partners. Where a name states a change or a piece, a line headed by the entry shows the natural chain unless it says otherwise.
UniProt P18054: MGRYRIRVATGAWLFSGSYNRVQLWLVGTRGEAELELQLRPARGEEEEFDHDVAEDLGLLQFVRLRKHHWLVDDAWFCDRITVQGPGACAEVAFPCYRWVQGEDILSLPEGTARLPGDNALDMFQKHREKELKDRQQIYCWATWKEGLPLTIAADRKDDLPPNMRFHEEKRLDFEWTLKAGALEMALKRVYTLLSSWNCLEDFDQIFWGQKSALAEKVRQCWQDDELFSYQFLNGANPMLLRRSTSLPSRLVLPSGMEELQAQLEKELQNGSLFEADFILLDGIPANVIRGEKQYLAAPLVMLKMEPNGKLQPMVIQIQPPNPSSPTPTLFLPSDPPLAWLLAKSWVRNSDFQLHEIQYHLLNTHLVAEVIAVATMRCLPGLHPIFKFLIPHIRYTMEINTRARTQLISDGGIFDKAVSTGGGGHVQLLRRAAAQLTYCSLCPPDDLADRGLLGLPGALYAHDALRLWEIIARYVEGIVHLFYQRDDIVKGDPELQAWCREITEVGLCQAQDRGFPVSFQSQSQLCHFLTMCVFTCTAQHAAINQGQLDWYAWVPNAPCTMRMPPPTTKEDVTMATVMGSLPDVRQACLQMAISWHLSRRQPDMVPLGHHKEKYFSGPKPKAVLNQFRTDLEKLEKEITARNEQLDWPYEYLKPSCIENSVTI

| Compound | Potency |
| --- | --- |
| CCCN(CCC)CC1=C(C(=O)OCC)C(c2ccc(C)cc2)NC(=O)N1 (stereo unspecified) | active: 14.1 µM |
| c1ccc(NC2=NCCN2CC2CCCCC2)cc1 | inconclusive: 3.55 µM [inhibitor, full curve, poor fit] |
| Cc1cc(F)ccc1NC(=O)CCn1ccn2nc3c(c2c1=O)CCCC3 | inactive |
| CCC(CC)NC(=O)N1CCN(S(=O)(=O)c2ccccc2C#N)CC1 | inconclusive: 28.2 µM [inhibitor, partial curve, poor fit] |
| O=C(NCc1ccc2c(c1)OCO2)c1ccc(C2SCC(=O)N2Cc2ccco2)cc1 (stereo unspecified) | inactive |
| O=C(CCN1CCc2ccccc2C1)Nc1ccc(F)cc1 | inconclusive: 70.8 µM [inhibitor, partial curve, poor fit] |
| COc1ccc(NC(=O)C(c2ccc(C#N)cc2)n2c(=O)c(-c3ccco3)nc3ccccc32)cc1 (stereo unspecified) | inconclusive: 50.1 µM [inhibitor, partial curve, poor fit] |
| Cc1ccc(C(=O)C(CC(=O)c2ccc(C)c(C)c2)S(=O)(=O)c2ccc(C)cc2)cc1 (stereo unspecified) | inactive |
| CC(NC(=O)C1CCN(C(=O)c2cccc3ccccc23)CC1)c1ccc(F)cc1F (stereo unspecified) | inconclusive: 70.8 µM [inhibitor, partial curve, poor fit] |
| CC(=O)c1c(C)[nH]c(C(=O)COC(=O)c2cc(C)oc2C)c1C | inconclusive: 112 µM [inhibitor, single point] |
| Cc1ccc(NS(=O)(=O)c2ccccc2)c(=O)n1CC(=O)N1CCN(CC(C)C)CC1 | inconclusive: 3.16 µM [inhibitor, full curve] |
| COc1ccc2oc(C(=O)N3CCN(c4ncccn4)CC3)c(C)c2c1 | inactive |
| CCNC(=O)C1CCCN(C(=O)c2cc(OC)c(OC)c(OC)c2)CC1 (stereo unspecified) | inactive |
| O=C(O)CCC(CC(=O)O)C(=O)O (stereo unspecified) | inconclusive: 35.5 µM [inhibitor, partial curve, poor fit] |
| CCC1CN(C(=O)N2CCC(C(=O)NCCc3ccc(OC)c(OC)c3)CC2)c2ccccc2O1 (stereo unspecified) | inactive |
| CC(C)(C)n1nnnc1CN(Cc1cccnc1)Cc1ccccc1Cl | inconclusive: 35.5 µM [inhibitor, single point] |
| COc1ccc(NC(=O)N[C@@H](CCSC)C(=O)O)cc1OC | inconclusive: 35.5 µM [inhibitor, single point] |
| CC1CC(C)CN(C(=O)COC(=O)Cc2ccc(Br)cc2)C1 (stereo unspecified) | inactive |
| c1ccc2c(c1)ccc1n[nH]nc12 | inactive |
| CCOC(=O)c1cccnc1SC(CC)C(=O)NCc1ccco1 (stereo unspecified) | inconclusive: 0.355 µM [inhibitor, full curve, poor fit] |
| Cc1cc(NC(=O)c2ccc(Br)o2)no1 | inconclusive: 28.2 µM [inhibitor, partial curve] |
| CNC(=O)CCN(Cc1ccco1)S(=O)(=O)c1ccc(OC)c(OC)c1 | inconclusive: 100 µM [inhibitor, single point] |

| Compound | Potency |
| --- | --- |
| CCOc1ccc(/C(O)=C2\C(=O)C(=O)N(CCOCCO)C2c2ccccc2OC)cc1 (stereo unspecified) | inconclusive: 8.91 µM [inhibitor, full curve, poor fit] |
| CCC(C)NCCOCCOc1ccccc1-c1ccccc1 (stereo unspecified) | inconclusive: 1.41 µM [inhibitor, full curve, poor fit] |
| COC(=O)C1=C(C)N(CCc2ccccc2)C(=O)C1(NS(=O)(=O)c1ccc(NC(C)=O)cc1)C(F)(F)F (stereo unspecified) | inactive |
| C/C(=N\NC(=O)CCCNc1ccc(C)cc1)c1ccccn1 | inactive |
| CC(=O)Nc1ccc(N2CCCCC2)c(C(=O)Nc2cccc(C)c2)c1 | inconclusive: 112 µM [inhibitor, partial curve, poor fit] |
| Cc1ccc(CNS(=O)(=O)c2ccc3c(c2)C(C)(C)C(=O)N3C)cc1 | inactive |
| CN1CCN(c2ncc3ncc(=O)n(CCC#N)c3n2)CC1 | inconclusive: 15.8 µM [inhibitor, partial curve, poor fit] |
| Cc1ccc(NC(=O)COC(=O)C2CCC(=O)N2)c(S(=O)(=O)N2CCOCC2)c1 (stereo unspecified) | inactive |
| Cc1cccc(C)c1NC(=O)CNC(=O)c1ccc(N2CCOCC2)c([N+](=O)[O-])c1 | inconclusive: 89.1 µM [inhibitor, partial curve, poor fit] |
| CN1CCN(C(=O)CN2CC3CC(C2)[C@H]2CCCC(=O)N2C3)CC1 (stereo partly specified) | inconclusive: 10 µM [inhibitor, partial curve, poor fit] |
| Cc1cccc(CN2CCC(n3nccc3NC(=O)CCCc3ccccc3)CC2)c1 | inconclusive: 35.5 µM [inhibitor, single point] |
| COc1cccc(CN2CCCN(S(=O)(=O)c3ccccc3)CCC(=O)NCC2)n1 | inactive |
| COc1ccc(NC(=O)c2ccc3c(c2)NC(=O)CO3)cc1 | inconclusive: 79.4 µM [inhibitor, single point] |
| N#CC1(NC(=O)COC(=O)c2nn(Cc3ccccc3)c(=O)c3ccccc23)CCCCC1 | inactive |
| COCCCNC(=O)c1ccc2nccn2c1 | inconclusive: 141 µM [inhibitor, partial curve, poor fit] |
| O=S1(=O)CC(N2CC=CC2)CN1Cc1ccc(F)cc1 (stereo unspecified) | inconclusive: 126 µM [inhibitor, single point] |
| CCOC(=O)C1CCCN(c2c(NCCN(CC)c3ccccc3)c(=O)c2=O)C1 (stereo unspecified) | inconclusive: 89.1 µM [inhibitor, single point] |
| O=C(Cn1nnc(-c2ccc3c(c2)OCO3)n1)Nc1ccccc1C(=O)O | active: 22.4 µM |
| O=C(O)Cn1c(O)c(C2=c3ccccc3=NC2=O)sc1=O | inconclusive: 22.4 µM [inhibitor, partial curve, poor fit] |
| O=C(NC(=S)NCCN1CCOCC1)c1ccc(Cl)cc1Cl | inconclusive: 35.5 µM [inhibitor, single point] |
| CCCCc1nc2ccccc2c(NC(=O)CN2CCCC2)c1CCC | inconclusive: 0.355 µM [inhibitor, full curve, poor fit] |
| Cn1cnc(S(=O)(=O)N2CCCC(Cc3noc(-c4cccnc4)n3)C2)c1 (stereo unspecified) | inconclusive: 17.8 µM [inhibitor, full curve] |

Sorted by molar mass (rising): 4 of the compounds above

| Compound | Potency |
| --- | --- |
| COCCCNC(=O)c1ccc2nccn2c1 | inconclusive: 141 µM [inhibitor, partial curve, poor fit] |
| CCOC(=O)c1cccnc1SC(CC)C(=O)NCc1ccco1 (stereo unspecified) | inconclusive: 0.355 µM [inhibitor, full curve, poor fit] |
| CCOc1ccc(/C(O)=C2\C(=O)C(=O)N(CCOCCO)C2c2ccccc2OC)cc1 (stereo unspecified) | inconclusive: 8.91 µM [inhibitor, full curve, poor fit] |
| N#CC1(NC(=O)COC(=O)c2nn(Cc3ccccc3)c(=O)c3ccccc23)CCCCC1 | inactive |

The list continues:

| Compound | Potency |
| --- | --- |
| Cn1c(=O)n(C)c2cc([N+](=O)[O-])c(N3CCN(CCO)CC3)cc21 | inconclusive: 44.7 µM [inhibitor, partial curve, poor fit] |
| Cc1c(O)ccc2c(CN3CCN(C)CC3)cc(=O)oc12 | inactive |
| Cc1cc(N(Cc2ccccc2F)C2CC2)n2nc(C(F)(F)F)nc2n1 | inconclusive: 112 µM [inhibitor, single point] |
| O=C1C(Cc2ccccc2)Nc2ncnc(N3CCN(c4ccccc4)CC3)c2N1Cc1ccc(Br)cc1 (stereo unspecified) | inconclusive: 44.7 µM [inhibitor, partial curve, poor fit] |
| CCN(CCCNC(=O)c1[nH]c(C)c(C(C)=O)c1C)c1ccccc1 | inconclusive: 28.2 µM [inhibitor, partial curve, poor fit] |
| CC(C)NC(=O)NC[C@H]1O[C@@H](CO)[C@@H](O)[C@H]1N1CCN(c2ccccn2)CC1 | inconclusive: 28.2 µM [inhibitor, full curve] |
| Cc1cc(NN)nc(NS(=O)(=O)c2ccccc2)n1 | inconclusive: 35.5 µM [inhibitor, partial curve, poor fit] |
| CN(C)c1ccc(-c2nnnn2[C@H]2CO[C@H]3[C@@H]2OC[C@@H]3NS(=O)(=O)c2ccc3ccccc3c2)cc1 | inconclusive: 79.4 µM [inhibitor, single point] |
| COc1cccc(CNC(=O)CSC2=NC3(CCCCC3)N=C2c2cccs2)c1 | inconclusive: 1.58 µM [inhibitor, full curve, poor fit] |
| O=C(O)C/C(=C\c1cc2c(cc1Br)OCO2)c1nc2ccccc2s1 | inconclusive: 50.1 µM [inhibitor, partial curve, poor fit] |
| Oc1c(Cl)cc(Cl)cc1/C=N/c1ncn[nH]1 | inconclusive: 44.7 µM [inhibitor, partial curve, poor fit] |
| CC(=O)Nc1cccc(-c2n[nH]c3c2CC(=O)N(c2ccccc2)C3)c1 | inconclusive: 10 µM [inhibitor, full curve, poor fit] |
| CCCCN(C)C(=O)Cn1cc(C#N)c2ccccc21 | inconclusive: 50.1 µM [inhibitor, partial curve, poor fit] |
| COC(=O)c1nnc(-c2ccccc2)nc1OC | inconclusive: 3.98 µM [inhibitor, full curve, poor fit] |
| Cc1ccc(SCC(=O)OCC(=O)c2ccc3c(c2)OCCO3)cc1 | inconclusive: 50.1 µM [inhibitor, partial curve, poor fit] |
| COc1ccc(NC(=O)Cn2nnc(C(=O)NCc3ccccc3)c2N)c(OC)c1 | inactive |
| CCc1nc(SC)ncc1C(=O)NCc1cccc(Br)c1 | inconclusive: 112 µM [inhibitor, partial curve, poor fit] |
| Cc1ccc(NC(=O)c2c(NC(=O)CCC(=O)O)sc3c2CCCCC3)cc1 | active: 20 µM |
| COc1ccc(-c2cn3ccsc3n2)cc1 | inconclusive: 35.5 µM [inhibitor, partial curve, poor fit] |
| COc1cc(NC(=O)Cn2nc(-c3ccc(F)cc3)ccc2=O)ccc1-n1cnnn1 | inactive |
| CCCCn1nc2cc(C(=O)NCc3ccc(OC(F)(F)F)cc3)ccc2c1OC | inconclusive: 7.94 µM [inhibitor, full curve] |
| Cc1c(Cl)cccc1NC(=S)NCc1ccc2c(c1)OCO2 | inconclusive: 44.7 µM [inhibitor, partial curve, poor fit] |

Reference: PubChem BioAssay AID1671190 (National Center for Advancing Translational Sciences (NCATS), 2021)
